Results: patent US20260193326A1
No constants are given. Whether binding was seen depends on the method and setting. Binding can be weak; no strength is given.

How the values were obtained:
Test in all cases: SPR, AAV amine-coupled to CM5 chip
[1] = biological target: AAV9 (adeno-associated virus serotype 9 (AAV9))
[2] = biological target: AAV8 (adeno-associated virus serotype 8 (AAV8))
[3] = biological target: AAV5 (adeno-associated virus serotype 5 (AAV5))

Measured: binding

B1: A4-D10 (protein)
chain: VQLQESGGGLAQAGGSLRLSCAASGRGFSINTMGWYRQAPGKQRELVAAVTRGGTTNYADSVKGRFTISRDNAKNTVYLQMNSLRPEDTAVYYCHVDEVRQSSWTTSNLWGQGTQVTVSSGGGGSGGGGSGGGGSVQLQESGGGLVQPGGSLRLSCAASGRAFSINTMGWYRQAPGKQRELVATVTRDGSTNYAGSVKGRFTISRDNAKNTVYLQMNSLRPEDTAVYYCHVDEVRQSSWTTSNLWGQGTQVTVSSGGGGSGGGGSGGGGSVQLQESGGGLVQPGGSLRLSCAASGSIFIINTMGWYRRAPGKQRELVAAVTRGGSTNYADSVKGRFTISRDNAKNTVYLQMNSLRPEDTAVYYCHVDEVRQSSWTTSNLWGQGTQVTVSSGGGGSGGGGSGGGGSVQLQESGGGLVQPGGSLRLSCAASGSIFSINTMGWYRQAPGKQRELVAAVTRGGSTNYADSVKGRFTISRDNAKNTVYLQMNSLRPEDTAVYYCHVDEVRQSSWTTSNLWGQGTQVTVSS
binds: all assays above

B2: A4-D11 (protein)
chain: VQLQESGGGLVQPGGSLRLSCAASGRGFSINTMGWYRQAPGKQRELVAAVTRGGTTNYADSVKGRFTISRDNAKNTVYLQMNSLRPEDTAVYYCHVDEVRQSSWTTSNLWGQGTQVTVSSGGGGSGGGGSGGGGSVQLQESGGGLVQPGGSLRLSCAASGSIFSINTMGWYRQAPGKQRELVAAVTRGGSTNYADSVKGRFTISRDNAKNTVYLQMNSLRPEDTAVYYCHVDEVRQSSWTTSNLWGQGTQVTVSSGGGGSGGGGSGGGGSVQLQESGGGLVQPGGSLRLSCAASGSIFIINTMGWYRRAPGKQRELVAAVTRGGSTNYADSVKGRFTISRDNAKNTVYLQMNSLRPEDTAVYYCHVDEVRQSSWTTSNLWGQGTQVTVSSGGGGSGGGGSGGGGSVQLQESGGGLVQPGGSLRLSCAASGSSFVINTMGWYRQAPGKQRELVAAVTRGGSTNYADSVKGRFTISRDNAKNTVYLQMNSLRPEDTAVYYCHVDEVRQSSWTTSNLWGQGTQVTVSS
binds: all assays above

B3: A4-D12 (protein)
chain: VQLQESGGGLVQPGGSLRLSCAASGSIFSINTMGWYRQAPGKQRELVAAVTRGGSTNYADSVKGRFTISRDNAKNTVYLQMNSLRPEDTAVYYCHVDEVRQSSWTTSNLWGQGTQVTVSSGGGGSGGGGSGGGGSVQLQESGGGLAQAGGSLRLSCAASGRGFSINTMGWYRQAPGKQRELVAAVTRGGTTNYADSVKGRFTISRDNAKNTVYLQMNSLRPEDTAVYYCHVDEVRQSSWTTSNLWGQGTQVTVSSGGGGSGGGGSGGGGSVQLQESGGGLVQPGGSLRLSCAASGRAFSINTMGWYRQAPGKQRELVATVTRDGSTNYAGSVKGRFTISRDNAKNTVYLQMNSLRPEDTAVYYCHVDEVRQSSWTTSNLWGQGTQVTVSSGGGGSGGGGSGGGGSVQLQESGGGLVQPGGSLRLSCAASGSIFIINTMGWYRRAPGKQRELVAAVTRGGSTNYADSVKGRFTISRDNAKNTVYLQMNSLRPEDTAVYYCHVDEVRQSSWTTSNLWGQGTQVTVSS
binds: all assays above

B4: A4-D8 (bispecific antibody)
chain: VQLQESGGGLVQPGGSLRLSCAASGSRFSLNTMGWYRQAPGKQRELVATVTRGGSTNYADSVKGRFTISRDNAKNTVYLQMNSLRPEDTAVYYCHVDELRESGWTTSNLWGQGTQVTVSSGGGGSGGGGSGGGGSVQLQESGGGLVQPGGSLRLSCAASGSRFSLNTMGWYRQAPGKQRELVATVTRGGSTNYADFVKGRFTISRDNAKNTVYLQMNSLRPEDTAVYYCHVDELRESGWTTSNLWGQGTQVTVSSGGGGSGGGGSGGGGSVQLQESGGGLVHSGGSLRLSCAASGSMFSLNTMGWYRQAPGKQRELVATITRGGGTSYADSVKGRFTISRDNAKNTVYLQMNSLRPEDTAVYYCHVDELRQSSWTTSNLWGQGTQVTVSSGGGGSGGGGSGGGGSVQLQESGGGLVQPGGSLRLSCAASGSRFSLNTMGWYRQAPGKQRELVATVTRGGSTNYADFVKGRFTISRDNAKNTVYLQMNSLRPEDTAVYYCHVDELRESGWTTSNLWGQGTQVTVSS
binds: all assays above

B5: A4-D9 (bispecific antibody)
chain: VQLQESGGGLVHSGGSLRLSCAASGSMFSLNTMGWYRQAPGKQRELVATITRGGGTSYADSVKGRFTISRDNAKNTVYLQMNSLRPEDTAVYYCHVDELRQSSWTTSNLWGQGTQVTVSSGGGGSGGGGSGGGGSVQLQESGGGLVQPGGSLRLSCAASGSRFSLNTMGWYRQAPGKQRELVATVTRGGSTNYADFVKGRFTISRDNAKNTVYLQMNSLRPEDTAVYYCHVDELRESGWTTSNLWGQGTQVTVSSGGGGSGGGGSGGGGSVQLQESGGGLVQPGGSLRLSCAASGSRFSLNTMGWYRQAPGKQRELVATVTRGGSTNYADFVKGRFTISRDNAKNTVYLQMNSLRPEDTAVYYCHVDELRESGWTTSNLWGQGTQVTVSSGGGGSGGGGSGGGGSVQLQESGGGLVQTGGSLRLSCAASGRAFSLNTMGWYRQAPGKWRELVATVTRGGSTNYAGSVKGRFTISRDNAKNTVYLQMNNLRPEDTAVYYCHVDEVRESSWTTSNLWGQGTQVTVSS
binds: all assays above

B6: A4-D6 (bispecific antibody)
chain: VQLQESGGGLVQTGGSLRLSCAASGRAFSLNTMGWYRQAPGKWRELVATVTRGGSTNYAGSVKGRFTISRDNAKNTVYLQMNNLRPEDTAVYYCHVDEVRESSWTTSNLWGQGTQVTVSSGGGGSGGGGSGGGGSVQLQESGGGLVQTGGSLRLSCAASGRAFSLNTMGWYRQAPGKWRELVATVTRGGSTNYAGSVKGRFTISRDNAKNTVYLQMNNLRPEDTAVYYCHVDEVRESSWTTSNLWGQGTQVTVSSGGGGSGGGGSGGGGSVQLQESGGGLVQPGGSLRLSCAASGSIFTINSMGWYRQAPGKWRELVATVTRGGNTNYANSVKGRFTISRDNAKNTVYLQMNTLRPEDTAVYYCHLDEVRDSSWTTSNLWGQGTQVTVSSGGGGSGGGGSGGGGSVQLQESGGGLVQPGGSLRLSCAASGSIFSINSMGWYRQAPGKWRELVATVTRGGSTNYANSVKGRFTISRDNAKNTVYLQMNTLRPEDTAVYYCHLDEVRDSSWTTSNLWGQGTQVTVSS
binds: all assays above

B7: A4-D7 (bispecific antibody)
chain: VQLQESGGGLVQTGGSLRLSCAASGRAFSLNTMGWYRQAPGKWRELVATVTRGGSTNYAGSVKGRFTISRDNAKNTVYLQMNNLRPEDTAVYYCHVDEVRESSWTTSNLWGQGTQVTVSSGGGGSGGGGSGGGGSVQLQESGGGLVQPGGSLRLSCAASGSIFTINSMGWYRQAPGKWRELVATVTRGGNTNYANSVKGRFTISRDNAKNTVYLQMNTLRPEDTAVYYCHLDEVRDSSWTTSNLWGQGTQVTVSSGGGGSGGGGSGGGGSVQLQESGGGLVQPGGSLRLSCAASGSIFSINSMGWYRQAPGKWRELVATVTRGGSTNYANSVKGRFTISRDNAKNTVYLQMNTLRPEDTAVYYCHLDEVRDSSWTTSNLWGQGTQVTVSSGGGGSGGGGSGGGGSVQLQESGGGLVQTGGSLRLSCAASGRAFSLNTMGWYRQAPGKWRELVATVTRGGSTNYAGSVKGRFTISRDNAKNTVYLQMNNLRPEDTAVYYCHVDEVRESSWTTSNLWGQGTQVTVSS
binds: all assays above

B8: A4-T1 (VHH)
VHH: VQLQESGGGLVQPGGSLRLSCAASGSIFSINLMGWYRQAPGKQRELVATITRGGNTNYAGSVKGRFTISRDNAKNTVYLQMNSLRPEDTAVYYCHVDEVRQSSWTTSNLWGQGTQVTVSS
binds: all assays above

B9: A4-L1 (VHH)
VHH: VQLQESGGGLVQPGGSLRLSCAASGSIFSINLMGWYRQAPGKQRELVATITRGGNTNYAGSVKGRFTISRDNAKNTVYLQMNSLRPEDTAVYYCHVDEVRQSSWTTSNLWGQGTQVTVSS
binds: all assays above

B10: A4-T2 (VHH)
VHH: VQLQESGGGLVQPGGSLRLSCAASGSIFSINLMGWYRQAPGKQRELVATITRGGNTNYAGSVKGRFTISRDNAKNTVYLQMNSLRPEDTAVYYCHVDEVRQSSWTTSNLWGQGTQVTVSS
binds: all assays above

B11: A4-M1 (VHH)
VHH: QVQLQESGGGLVQPGGSLRLSCAASGSIFSINLMGWYRQAPGKQRELVATITRGGNTNYAGSVKGRFTISRDNAKNTVYLQMNSLRPEDTAVYYCHVDEVRQSSWTTSNLWGQGTQVTVSS
binds: all assays above

B12: A4-M2 (VHH)
VHH: QVQLQESGGGLVQPGGSLRLSCAASGSIFSINLMGWYRQAPGKQRELVATITRGGNTNYAGSVKGRFTISRDNAKNTVYLQMNSLRPEDTAVYYCHVDEVRQSSWTTSNLWGQGTQVTVSS
binds: all assays above

B13: A4-D13 (protein)
chain: VQLQESGGGLVQPGGSLRLSCAASGSIFIINTMGWYRRAPGKQRELVAAVTRGGSTNYADSVKGRFTISRDNAKNTVYLQMNSLRPEDTAVYYCHVDEVRQSSWTTSNLWGQGTQVTVSSGGGGSGGGGSGGGGSVQLQESGGGLVQPGGSLRLSCAASGSIFSINTMGWYRQAPGKQRELVAAVTRGGSTNYADSVKGRFTISRDNAKNTVYLQMNSLRPEDTAVYYCHVDEVRQSSWTTSNLWGQGTQVTVSSGGGGSGGGGSGGGGSVQLQESGGGLAQAGGSLRLSCAASGRGFSINTMGWYRQAPGKQRELVAAVTRGGTTNYADSVKGRFTISRDNAKNTVYLQMNSLRPEDTAVYYCHVDEVRQSSWTTSNLWGQGTQVTVSSGGGGSGGGGSGGGGSVQLQESGGGLVQPGGSLRLSCAASGRAFSINTMGWYRQAPGKQRELVATVTRDGSTNYAGSVKGRFTISRDNAKNTVYLQMNSLRPEDTAVYYCHVDEVRQSSWTTSNLWGQGTQVTVSS
binds: all assays above
